# The list shows only some results of the screen, not a fair sample: it gathers tests that were run many times, whatever their T/C, doses with no T/C, and many T/C values between a quarter and a half above the control. Other doses and runs of a compound stand elsewhere. T/C gives the treated animals as a percentage of the vehicle group. Schedule codes are those of the source, read here as Q, the interval in days (D) or hours (H), X, the number of doses. Some schedules carry Z or #; the key to these is not given. Some T/C values are followed by the survivors on the day toxicity was checked, most often the fifth; where none is given, no animal had died by that day. Some entries were tested several times; their values stand side by side, smallest first. Some entries give survivors of the animals treated and no T/C: the source files T/C as zero there, which appears to mark a toxic dose or a test without result, not a measured value. Counts of survivors are from the toxicity check (mostly the fifth day) where no day follows; animals may have died later.
# System: BDF1 mice, Adenocarcinoma 755 s.c., tumor weight T/C
# Assay: NCI In Vivo Anticancer Drug Screen. Data for tumor model Adenocarcinoma 755 (subcutaneous) in B6D2F1 (BDF1) mice
# Conditions: T/C endpoint: mean tumor weight, higher T/C = larger tumour; for T/C: evaluated on day 12
# Experimental: The antitumor activity of compounds was measured in mice bearing transplantable tumors. Survival or tumor size were measured and the results are expressed as the measurement made in the treated group (T) divided by the measurement made in the vehicle treated control group (C). The tumor model used in this assay is Adenocarcinoma 755 (subcutaneous) in B6D2F1 (BDF1) mice
# [1] = dose: 240.0 mg/kg/injection, schedule: Q01DX011 (ip), vehicle: carboxymethylcellulose (CMC)
# [2] = dose: 110.0 mg/kg/injection, schedule: Q01DX011 (sc), vehicle: steroid suspending solution
# [3] = dose: 400.0 mg/kg/injection, schedule: Q01DX011 (ip), vehicle: carboxymethylcellulose (CMC)
# [4] = dose: 200.0 mg/kg/injection, schedule: Q01DX011 (ip), vehicle: carboxymethylcellulose (CMC)
compound,measurement,setting,value
OB(O)O,survivor count,"dose: 1000.0 mg/kg/injection, schedule: Q#A X022 (oral), vehicle: water",6 of 10
same,survivor count,"dose: 1250.0 mg/kg/injection, schedule: Q#A X022 (oral), vehicle: water",3 of 10
Cc1nc(Cl)c(C#N)c(C(F)(F)F)c1[N+](=O)[O-],survivor count,"dose: 60.0 mg/kg/injection, schedule: Q01DX011 (ip), vehicle: carboxymethylcellulose (CMC)",0 of 10
Cn1c(N)nc2c(ncn2C2CC(O)C(CO)O2)c1=O (centres undefined),T/C,[1],125 % of control
CC(=O)[C@@]1(O)CC[C@H]2[C@@H]3C[C@H](C)C4=CC(=O)C=C[C@]4(C)[C@@]3(F)[C@@H](O)C[C@@]21C,survivor count,"dose: 6.0 mg/kg/injection, schedule: Q#A X011 (sc), vehicle: steroid suspending solution",1 of 10
same,survivor count,"dose: 12.5 mg/kg/injection, schedule: Q#A X011 (sc), vehicle: steroid suspending solution",0 of 10
same,survivor count,"dose: 25.0 mg/kg/injection, schedule: Q01DX011 (sc), vehicle: steroid suspending solution",6 of 10
same,survivor count,"dose: 25.0 mg/kg/injection, schedule: Q#A X011 (sc), vehicle: steroid suspending solution",0 of 10
same,survivor count,"dose: 50.0 mg/kg/injection, schedule: Q#A X011 (sc), vehicle: steroid suspending solution",0 of 10
same,survivor count,"dose: 55.0 mg/kg/injection, schedule: Q01DX011 (sc), vehicle: steroid suspending solution",5 of 10
same,survivor count,"dose: 100.0 mg/kg/injection, schedule: Q01DX011 (ip), vehicle: steroid suspending solution",5 of 10
same,T/C,[2],"12 [7 of 10 alive], 18 [7 of 10 alive], 39 % of control"
same,survivor count,[2],4 of 10
same,survivor count,"dose: 200.0 mg/kg/injection, schedule: Q01DX011 (sc), vehicle: steroid suspending solution",0 of 10 and 4 of 10
same,survivor count,"dose: 220.0 mg/kg/injection, schedule: Q01DX011 (sc), vehicle: steroid suspending solution","1 of 10, 2 of 10, 4 of 10, 7 of 12"
same,survivor count,"dose: 300.0 mg/kg/injection, schedule: Q01DX006 (iv), vehicle: steroid suspending solution",0 of 10
same,survivor count,"dose: 300.0 mg/kg/injection, schedule: Q01DX011 (im), vehicle: steroid suspending solution",3 of 10
same,survivor count,"dose: 300.0 mg/kg/injection, schedule: Q01DX011 (sc), vehicle: steroid suspending solution",3 of 10
same,survivor count,"dose: 400.0 mg/kg/injection, schedule: Q01DX011 (sc), vehicle: steroid suspending solution",0 of 10
OC1C(O)C(O)C2(CO2)C(O)C1O (centres undefined),survivor count,"dose: 600.0 mg/kg/injection, schedule: Q01DX011 (ip), vehicle: saline",1 of 10
CCC(C)Sc1nc(N)nc2c1ncn2C1OC(CO)C(O)C1O (centres undefined),survivor count,[3],1 of 10
same,survivor count,"dose: 600.0 mg/kg/injection, schedule: Q01DX011 (ip), vehicle: carboxymethylcellulose (CMC)",0 of 10
O=C(O)Cn1cccc1,survivor count,"dose: 8000.0 mg/kg/injection, schedule: Q01DX011 (ip), vehicle: other",1 of 10
CC1=C(O)c2ccccc2C(=O)C1=O,survivor count,"dose: 200.0 mg/kg/injection, schedule: Q01DX011 (ip), vehicle: other",1 of 10
Clc1nc(Cl)c2ncn(C3CCCO3)c2n1 (centres undefined),survivor count,"dose: 100.0 mg/kg/injection, schedule: Q01DX011 (ip), vehicle: methylcellulose (MC)",5 of 10
OC1CC([CH2][Hg][Cl])OC([CH2][Hg][Cl])C1 (centres undefined),survivor count,"dose: 100.0 mg/kg/injection, schedule: Q01DX011 (ip), vehicle: carboxymethylcellulose (CMC)",0 of 10
same,survivor count,[4],0 of 10
COC(=O)C1(N)CCCC1,survivor count,[4],5 of 10
same,survivor count,[3],1 of 10
CC1CC2(C)C(=CC1=O)CCC1C3CCC(C)(O)C3(C)CC(O)C12F (centres undefined),T/C,"dose: 10.0 mg/kg/injection, schedule: Q01DX011 (sc), vehicle: steroid suspending solution",143 % of control
CS(=O)(=O)OCC1OC(O)CC1O (centres undefined),T/C,"dose: 225.0 mg/kg/injection, schedule: Q01DX011 (ip), vehicle: saline",136 % of control [9 of 10 alive]
CCCSc1ncnc2nc[nH]c12,T/C,"dose: 0.25 mg/kg/injection, schedule: Q01DX011 (ip), vehicle: alcohol",137 % of control
same,T/C,"dose: 0.5 mg/kg/injection, schedule: Q#A X022 (ip), vehicle: alcohol",145 % of control
same,survivor count,"dose: 1.25 mg/kg/injection, schedule: Q#A X022 (ip), vehicle: alcohol",6 of 10
same,survivor count,"dose: 10.0 mg/kg/injection, schedule: Q01DX011 (im), vehicle: alcohol",0 of 10
same,survivor count,"dose: 15.0 mg/kg/injection, schedule: Q#A X022 (ip), vehicle: alcohol",6 of 10
same,survivor count,"dose: 20.0 mg/kg/injection, schedule: Q01DX011 (im), vehicle: alcohol",0 of 10
same,survivor count,"dose: 50.0 mg/kg/injection, schedule: Q01DX001 (ip), vehicle: alcohol",5 of 10
same,survivor count,"dose: 100.0 mg/kg/injection, schedule: Q01DX001 (ip), vehicle: alcohol",1 of 10
same,survivor count,"dose: 200.0 mg/kg/injection, schedule: Q01DX001 (ip), vehicle: alcohol",6 of 10
O=C(CCl)N1c2ccccc2Oc2cc3ccccc3cc21,survivor count,"dose: 56.0 mg/kg/injection, schedule: Q01DX011 (ip), vehicle: methylcellulose (MC)",6 of 10
same,survivor count,"dose: 112.0 mg/kg/injection, schedule: Q01DX011 (ip), vehicle: methylcellulose (MC)",3 of 10
Cn1c(=O)c2cc[nH]c2n(C)c1=O,survivor count,"dose: 120.0 mg/kg/injection, schedule: Q01DX011 (ip), vehicle: carboxymethylcellulose (CMC)",2 of 10
same,survivor count,[1],0 of 10
CC(CNC(=O)CCOS(C)(=O)=O)CNC(=O)CCOS(C)(=O)=O,survivor count,[3],3 of 10
CCCCCSc1nc(N)nc2nc[nH]c12,survivor count,"dose: 200.0 mg/kg/injection, schedule: Q01DX011 (ip), vehicle: saline",4 of 10
CCCCCCCCOP(=O)(N1CC1)N1CC1,survivor count,"dose: 1.0 mg/kg/injection, schedule: Q01DX011 (ip), vehicle: saline",4 of 10
same,survivor count,"dose: 6.75 mg/kg/injection, schedule: Q01DX011 (ip), vehicle: saline",2 of 10
COc1ccc(C(=O)OCC2OC(n3cnc4c(=S)nc[nH]c43)C(OC(=O)c3ccc(OC)cc3)C2OC(=O)c2ccc(OC)cc2)cc1 (centres undefined),survivor count,[3],0 of 10
same,survivor count,"dose: 800.0 mg/kg/injection, schedule: Q01DX011 (ip), vehicle: carboxymethylcellulose (CMC)",0 of 10
O=C1C=CC(=O)O1 (tested in a mixture with another compound),survivor count,"dose: 45.0 mg/kg/injection, schedule: Q01DX011 (ip), vehicle: saline",6 of 10
same,survivor count,"dose: 90.0 mg/kg/injection, schedule: Q01DX011 (ip), vehicle: saline",3 of 10
C/C(=N/NC(=O)c1ccncc1)c1ccc(Cl)c(Cl)c1,survivor count,"dose: 120.0 mg/kg/injection, schedule: Q01DX011 (ip), vehicle: methylcellulose (MC)",6 of 10
Oc1ccc2ccccc2c1-c1c(O)ccc2ccccc12,survivor count,"dose: 100.0 mg/kg/injection, schedule: Q01DX011 (ip), vehicle: other",2 of 10
c1nc(SC2CCCC2)c2[nH]cnc2n1,survivor count,"dose: 340.0 mg/kg/injection, schedule: Q01DX011 (ip), vehicle: carboxymethylcellulose (CMC)",0 of 10
same,survivor count,"dose: 340.0 mg/kg/injection, schedule: Q01DX011 (oral), vehicle: carboxymethylcellulose (CMC)",0 of 10
same,survivor count,"dose: 680.0 mg/kg/injection, schedule: Q01DX011 (oral), vehicle: carboxymethylcellulose (CMC)",0 of 10
COC(=O)c1nc(-c2ccc3c(n2)C(=O)C(N)=C(OC)C3=O)c(N)c(-c2ccc(OC)c(OC)c2O)c1C,survivor count,"dose: 2.5 mg/kg/injection, schedule: Q01DX011 (ip), vehicle: other",6 of 10
O=C(CCl)Nc1ncnc2nc[nH]c12,survivor count,"dose: 65.0 mg/kg/injection, schedule: Q01DX011 (ip), vehicle: methylcellulose (MC)",3 of 10
